Test results published in PMC7425996.

Biological target: T1, GFP-Nap1 (Dictyostelium Nap1 tagged with GFP) (Dictyostelium discoideum) (UniProt Q869Q3)
T1 sequence: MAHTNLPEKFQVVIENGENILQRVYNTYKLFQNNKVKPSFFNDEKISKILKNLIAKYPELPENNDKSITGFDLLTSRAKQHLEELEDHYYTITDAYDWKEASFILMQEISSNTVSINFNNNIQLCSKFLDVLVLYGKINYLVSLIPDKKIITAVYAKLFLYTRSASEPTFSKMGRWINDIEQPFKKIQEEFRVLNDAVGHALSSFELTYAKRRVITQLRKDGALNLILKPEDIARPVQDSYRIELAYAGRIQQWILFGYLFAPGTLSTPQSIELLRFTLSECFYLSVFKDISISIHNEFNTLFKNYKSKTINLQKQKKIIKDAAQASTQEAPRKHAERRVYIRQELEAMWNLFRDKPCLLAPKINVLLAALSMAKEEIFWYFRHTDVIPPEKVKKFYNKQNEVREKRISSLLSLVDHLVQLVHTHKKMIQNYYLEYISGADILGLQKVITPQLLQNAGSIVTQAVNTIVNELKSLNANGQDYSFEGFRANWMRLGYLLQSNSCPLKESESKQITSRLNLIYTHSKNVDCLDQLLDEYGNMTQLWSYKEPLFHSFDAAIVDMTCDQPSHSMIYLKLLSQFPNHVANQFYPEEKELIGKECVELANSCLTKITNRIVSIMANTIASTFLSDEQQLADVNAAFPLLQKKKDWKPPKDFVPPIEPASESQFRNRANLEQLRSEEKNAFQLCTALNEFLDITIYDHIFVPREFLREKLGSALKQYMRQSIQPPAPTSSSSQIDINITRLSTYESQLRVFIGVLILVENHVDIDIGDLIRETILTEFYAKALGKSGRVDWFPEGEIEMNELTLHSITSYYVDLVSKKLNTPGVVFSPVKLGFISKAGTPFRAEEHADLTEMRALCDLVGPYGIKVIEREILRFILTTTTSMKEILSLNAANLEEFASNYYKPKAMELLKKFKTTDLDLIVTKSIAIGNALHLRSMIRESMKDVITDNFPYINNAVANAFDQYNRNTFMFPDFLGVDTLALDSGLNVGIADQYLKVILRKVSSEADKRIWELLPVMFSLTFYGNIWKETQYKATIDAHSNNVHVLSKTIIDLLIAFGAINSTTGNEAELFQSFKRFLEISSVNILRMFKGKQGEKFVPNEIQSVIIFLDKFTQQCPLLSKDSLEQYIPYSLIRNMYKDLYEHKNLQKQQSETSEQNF
Assay: affinity purification with mass spectrometry; EGFP-Nap1 lightly cross-linked to its neighbors with formaldehyde, immunoprecipitation of GFP, mass spectrometric identification of bound proteins

binding: binds
B1: sepA (Ste20-family kinase, MAPKKK homologue) (enzyme, UniProt Q8T2I8 1-1167)
chain: MSKKEPEEIKKNVTVGNYNLGVVIGKGGFGTVYQGLDIEDGDFVAIKQINLTKIPKDQLQGIMNEIDLLKNLNHANIVKYIKYVKTKDNLYIVLEYVENGSLSGIIKKFGKFPETLVCVYIRQVLEGLVYLHEQGVVHRDIKGANILTTKEGKIKLADFGVATKFDDTSAAAVVGTPYWMAPEIIELNGATTKSDIWSVGCTVIELLTGSPPYYDLGQMPALFRIVQDDCPPLPEGISPPLKDWLMQCFQKDPNLRISAQKLLKHKWIQASIKKKPVENGAGGVGNGTDSLGAPANIDDIAKNITDYNERINKKPSHQRKPSIHPKSPKGKVFLPPPEEEEDEWGDDFSNTPKSIKLPDKKSPLKLTNNKPSTPLKQQPTNNTPVQQQQQQQQPPPLKLAVPKQPVIENDDDWGDDFNTVSDLSKAVGSLNFNNNKKNETPKPNIKKPTFSEDEDEDDDDDGFGSGGDDEDDDFGDIPTSIKLNPKFGSNIKGNSSGSANTTNSSSTVVQQPKLTVSNNNNNNNKKLPLSPRQPSSGNVKEGINHGSTGSKSGGVIIDQWGEDGEEDNDWGDVATVNFDPKVIRKGTVNKPDLSTRLKNRIALSETALSNSFNNNGNDDEDEDIFADDFDEDDDEDFDLDKNLMKDNYARMSSEILKLMNLLTPEQPEEVISSACTQLITMFKENSEQKTLLIRRHGVIPIMEMLEVSNIQSHVLCSILKVVNQIIDNNMEIQENLCLVGGIPAIMKFSGPEYPASVRLETASFISKMCSTSTLTLQMFIACKGLPILVDFLLSPYAESKRLVWMAVDAIVNVFELQSPTPKNDFCRLFSKCGLLKTLPIVLRDSIADGEAAATYPDRIINLFIMFSAADSVVRKTMSAVEVIRPILDTLSQLMPEQLAKVLKSIKQLSMDHNTLANLQNAGAIRFMVPFLGRRTGAFVAEIHNHVLNTMFHLCRIDPERQYQAAIDGIIPHLQYFITSHSPLNQFALPIICDLAHSKKARSELWKNNGVAFYLSLLEERYWQVNALDSLAVWITDETHKVENIIATNENIKKLIQLFTNAESQSFAGILEPLLKIIQISIPVNILLGTSNFITKIIDKLGHTNPQVRLNLLKIITSLYECHPNAKKMIQEFKLIPIIQKIADTDKSVLVQKMASKLLEAFNANTVI

No constants are given. Whether binding was seen depends on the method and setting. Binding seen in cells or lysates may run through a third protein. These calls come from enrichment with a bait or labelling near it, and not all partners need be listed. Where a sequence is shown, tags or fusion partners need not be part of it.
